Source: PubChem BioAssay AID504467 (National Center for Advancing Translational Sciences (NCATS), 2011)
About 7,700 (2.3%) of roughly 330,000 compounds were called active. The inconclusive results got no clear call from the source; some entries with a clear call stand among them for comparison. The call rests on the fitted dose curve; in most records, active means well fitted inhibition curve with a large enough effect; inconclusive means small, poorly fitted or top-dose-only effect, or effect the other way; inactive means flat fitted curve, though single readings scatter. Potencies of inconclusive entries are doubtful fits and often do not repeat.

assay: qHTS screen for small molecules that inhibit ELG1-dependent DNA repair in human embryonic kidney (HEK293T) cells expressing luciferase-tagged ELG1; settings: HEK293T ELG1-luciferase reporter, luminescence, 16 h, DNA damage induced by 5-fluorouridine; series mostly up to 46.1 µM; further: nearly all actives have a fitted effect of over 55% in size
Summary of the method: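 Overnight (16 hr) co-exposure of 2,000 cells/well to 5-fluorouridine and compound at 37 °C preceded detection. Luciferase was quantified via ONE-Glo luminescence; loss of signal denotes inhibition.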
Potency means the concentration at half of the fitted maximal effect.

Row | SMILES | Potency
1 | Cc1ccc(S(=O)(=O)CCSc2n[nH]c(=O)n2-c2ccccc2)cc1 | inactive
2 | CCCCN1CC2=C(C1=O)C(c1ccc(O)cc1)NC(=O)N2C (configuration not stated) | inconclusive: 1.03 µM [activator, single point]
3 | Cc1nn(-c2ccc(F)cc2)c(Cl)c1/C=N/NC(=O)c1cccc(S(=O)(=O)N2CCCC2)c1 | inactive
4 | COc1ccc(C(=O)NCc2ccc(N3CCN(C(=O)OC(C)(C)C)CC3)cc2)cc1 | inconclusive: 20.6 µM [inhibitor, single point]
5 | c1ccc(-c2nnc(CN3CCC4(CC3)OCCO4)o2)cc1 | inconclusive: 16.4 µM [activator, single point]
6 | CC(C)(C)OC(=O)NCCCCCNC(=O)c1nc[nH]c1C(=O)NCc1ccccc1 | inconclusive: 29.1 µM [inhibitor, single point]
7 | Cc1ccc(NC(=O)CN(C)Cc2ccc(F)cc2)c([N+](=O)[O-])c1 | inconclusive: 20.6 µM [activator, partial curve, poor fit]
8 | CCOc1ccc(S(=O)(=O)N2CCN(c3ccccn3)CC2)cc1 | inconclusive: 23.1 µM [inhibitor, single point]
9 | S=C(NCCc1ccccn1)NC1CCCCC1 | inconclusive: 18.4 µM [activator, partial curve]
10 | O=C(N/N=C/c1sc(N2CCOCC2)nc1-c1ccccc1)c1ccccc1F | inconclusive: 16.4 µM [inhibitor, single point]
11 | N#CCc1nc(C(c2ccccc2)c2ccccc2)no1 | inactive
12 | COc1cccc(OC)c1C(=O)Nc1cccc(C(=O)Nc2cccc(C(=O)O)c2)c1 | inactive
13 | CCN1C(=O)c2cccc3c(S(=O)(=O)Nc4ccccc4OC)ccc1c23 | inconclusive: 13 µM [activator, partial curve]
14 | CCN(C(=O)CSc1nnnn1C)C1CCCCC1 | inactive
15 | Cc1cccc(OCC(O)Cn2c(N3CCCCC3)nc3c2c(=O)n(C)c(=O)n3C)c1 (configuration not stated) | inconclusive: 23.1 µM [inhibitor, partial curve]
16 | CC(c1n[nH]c(=S)n1-c1ccccc1)N1CCCCC1 (configuration not stated) | inactive
17 | COC(=O)/C(=N/Nc1ccccc1C)Sc1nnc(C(O)c2ccccc2)n1-c1ccccc1 (configuration not stated) | inactive
18 | C/C(=N\NC(=O)Cc1c[nH]c2ccccc12)c1ccc2ccccc2c1 | inconclusive: 29.1 µM [inhibitor, single point]
19 | Cn1c(=O)n(Cc2ccc(Cl)cc2)c(=O)c2c1nc1n2CCN1Cc1ccco1 | active: 25.9 µM
20 | Cc1cc(C)n(-c2cc(N3CCOCC3)nc(-c3ccccc3)n2)n1 | inconclusive: 11.2 µM [inhibitor, partial curve, poor fit]
21 | CCOc1ccc(-c2cnc(NCc3cccc4ccccc34)n2CCOC)cc1 | inactive
22 | CN(Cc1ccco1)C(=O)CSc1nn2c(=O)c(C(C)(C)C)nnc2s1 | inactive
23 | O=C(O)c1ccc(N2N=C(c3ccccc3)CC2c2ccccc2)cc1 (configuration not stated) | inconclusive: 29.1 µM [activator, single point]
24 | OCCNCc1cccc(Br)c1 | inconclusive: 32.6 µM [activator, partial curve, poor fit]

Already shown: 9 of the compounds above.
Row | SMILES | Potency
8 | CCOc1ccc(S(=O)(=O)N2CCN(c3ccccn3)CC2)cc1 | inconclusive: 23.1 µM [inhibitor, single point]
9 | S=C(NCCc1ccccn1)NC1CCCCC1 | inconclusive: 18.4 µM [activator, partial curve]
10 | O=C(N/N=C/c1sc(N2CCOCC2)nc1-c1ccccc1)c1ccccc1F | inconclusive: 16.4 µM [inhibitor, single point]
11 | N#CCc1nc(C(c2ccccc2)c2ccccc2)no1 | inactive
12 | COc1cccc(OC)c1C(=O)Nc1cccc(C(=O)Nc2cccc(C(=O)O)c2)c1 | inactive
13 | CCN1C(=O)c2cccc3c(S(=O)(=O)Nc4ccccc4OC)ccc1c23 | inconclusive: 13 µM [activator, partial curve]
14 | CCN(C(=O)CSc1nnnn1C)C1CCCCC1 | inactive
15 | Cc1cccc(OCC(O)Cn2c(N3CCCCC3)nc3c2c(=O)n(C)c(=O)n3C)c1 (configuration not stated) | inconclusive: 23.1 µM [inhibitor, partial curve]
16 | CC(c1n[nH]c(=S)n1-c1ccccc1)N1CCCCC1 (configuration not stated) | inactive

Next compounds follow:

Row | SMILES | Potency
25 | CCCCCn1c(-c2ccco2)nc2nc3ccccc3nc21 | inconclusive: 18.4 µM [inhibitor, single point]
26 | CC(C)N(C(=O)[C@H]1C[C@H](CC(=O)NCCN2CCOCC2)C(=O)N2CCc3c([nH]c4ccc(Cl)cc34)[C@]12C)C(C)C | inactive
27 | CCOC(=O)Nc1ccc2c(C)cc(=O)oc2c1 | inconclusive: 18.4 µM [activator, partial curve]
28 | Cc1ccc(C)c(S(=O)(=O)NCCOc2nc(NC(C)C)nc(NC(C)C)n2)c1 | inconclusive: 20.6 µM [inhibitor, single point]
29 | CCCNC(=O)c1oc2ccc3c(c2c1C)C(=O)CC(C)(C)O3 | inconclusive: 2.59 µM [activator, partial curve]
30 | O=C(NC(=S)Nc1ccc(CN2CCOCC2)cc1)c1ccco1 | inconclusive: 23.1 µM [activator, partial curve]
31 | COc1ccc(-c2nc(CSCC(=O)N3CCc4ccccc4C3)c(C)o2)cc1OC | inconclusive: 14.6 µM [inhibitor, partial curve, poor fit]
32 | Cc1ccc(NC(=O)CN2C(=O)c3ccccc3S2(=O)=O)cc1C | inconclusive: 5.17 µM [activator, single point]
33 | CN(CC(=O)Nc1ccccc1C(F)(F)F)C(=O)CCc1nc2ccccc2c(=O)[nH]1 | inactive
34 | CCCCC(=O)Nc1cnc(NC(=O)c2cccs2)cc1C | inconclusive: 35.5 µM [activator, single point]
35 | COc1ccccc1NS(=O)(=O)c1ccc(NC(=O)c2ccccn2)cc1 | inactive
36 | CC(=O)/C=C/c1ccc(C)o1 | inactive
37 | COCCCn1c(=S)[nH]c2c(sc3ccccc32)c1=O | inactive
38 | CC(C)C(=O)N1CCC(c2nc(-c3ccc(S(=O)(=O)N4CCN(C)CC4)cc3)no2)CC1 | inactive
39 | O=C(CNC(=S)NC(=O)c1ccco1)c1ccccc1 | inconclusive: 23.1 µM [activator, partial curve, poor fit]
40 | O=C(COC(=O)[C@H](Cc1ccccc1)NC(=O)c1ccco1)Nc1ccccc1OC(F)F | inconclusive: 8.2 µM [activator, single point]
41 | Cc1c(CCO)c(=O)[nH]n1S(=O)(=O)c1ccc(F)cc1 | inactive
42 | CCOC(=O)c1cc2c(ccc3nc(C)c(C)c32)[nH]c1C | inactive
43 | CCOc1ccc(OCCOC(=O)CN(C)S(=O)(=O)c2ccc(NC(C)=O)cc2)cc1 | inactive
44 | COc1ccccc1C(=O)NCCC(=O)NC(C)c1ccc(-n2ccnc2)cc1 (configuration not stated) | inactive
45 | COC(=O)/C=C/c1cnc2ccccc2c1 | inconclusive: 16.4 µM [activator, partial curve]
46 | Cc1ccc(NC(=O)/C(Cl)=C/c2ccccc2)cc1C | inconclusive: 2.31 µM [activator, partial curve]
47 | O=[N+]([O-])c1ccc(/C=N/Nc2nc(N3CCCC3)nc(N3CCCC3)n2)o1 | inconclusive: 18.4 µM [inhibitor, partial curve]
